Experimental data taken from article PMC7788595.
These are yes or no findings as the source states them, for the method shown. Some entries that bind do so weakly or less than the wild type. Tags and fused reporters may be left off the sequences shown.

The chains behind the UniProt entries cited, without tags or fusion partners. Residues count along the entry.
UniProt P19838, residues 1-433: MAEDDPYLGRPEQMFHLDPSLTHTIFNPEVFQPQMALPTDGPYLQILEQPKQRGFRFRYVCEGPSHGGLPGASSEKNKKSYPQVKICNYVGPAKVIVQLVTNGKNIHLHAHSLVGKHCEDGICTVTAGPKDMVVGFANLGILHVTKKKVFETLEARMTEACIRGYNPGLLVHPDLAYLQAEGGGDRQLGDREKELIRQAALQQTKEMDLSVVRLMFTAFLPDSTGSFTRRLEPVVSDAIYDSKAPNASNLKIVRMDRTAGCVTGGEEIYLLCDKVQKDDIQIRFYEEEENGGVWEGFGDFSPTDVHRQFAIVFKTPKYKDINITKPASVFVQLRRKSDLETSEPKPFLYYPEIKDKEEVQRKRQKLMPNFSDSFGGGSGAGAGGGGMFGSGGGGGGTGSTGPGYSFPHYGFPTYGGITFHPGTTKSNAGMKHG

Biological target: T1, sfGFP-Bcl3 (UniProt P20749)
T1 sequence: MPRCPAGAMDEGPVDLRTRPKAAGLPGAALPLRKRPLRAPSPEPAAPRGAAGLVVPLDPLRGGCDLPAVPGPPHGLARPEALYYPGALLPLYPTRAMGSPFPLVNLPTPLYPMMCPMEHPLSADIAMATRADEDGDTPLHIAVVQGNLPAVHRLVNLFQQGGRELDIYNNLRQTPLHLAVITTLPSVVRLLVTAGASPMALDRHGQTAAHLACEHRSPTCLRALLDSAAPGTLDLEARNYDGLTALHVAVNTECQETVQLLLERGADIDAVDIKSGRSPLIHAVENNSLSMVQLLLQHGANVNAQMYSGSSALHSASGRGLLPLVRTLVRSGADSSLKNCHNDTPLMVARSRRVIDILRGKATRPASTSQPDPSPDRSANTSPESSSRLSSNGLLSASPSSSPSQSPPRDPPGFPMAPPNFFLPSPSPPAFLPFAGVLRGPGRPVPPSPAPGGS
Assay: co-purification; the two fusion proteins produced and purified as the complex (Supporting Methods, Figure S8b)

- binding: binds
Substance: P50-Venus (from UniProt P19838 1-433)
